Data: article PMC3936768, “Transcription factor abundance controlled by an auto-regulatory mechanism involving a transcription start site switch”

Tests used:
ZNF143 DBD [1] = biological target: T1, ZNF143 DBD (UniProt P52747); assay: competition with a labelled probe; details: labeled BUB1B optimal probe, negative control; competition: 20 min preincubation at room temperature, 10 uL; competitor excess 200-fold (Methods) or 1000-fold (Fig 2E legend); recombinant protein; letters put together from the description
T1 sequence (looked up, limits assumed): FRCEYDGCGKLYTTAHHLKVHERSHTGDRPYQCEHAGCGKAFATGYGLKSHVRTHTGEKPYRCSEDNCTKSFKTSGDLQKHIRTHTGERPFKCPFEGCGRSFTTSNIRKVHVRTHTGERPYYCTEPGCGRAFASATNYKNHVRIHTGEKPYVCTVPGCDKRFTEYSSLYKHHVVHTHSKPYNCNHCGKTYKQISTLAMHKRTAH

ZNF143 DBD [2] = biological target: T1, ZNF143 DBD; assay: competition EMSA; details: labeled BUB1B optimal probe; 20 fmol 32P probe; 4% native PAGE in 0.25x TBE; recombinant protein; label: 5' 32P (unlabeled as competitor); scale: fold weaker than BUB1B optimal site

CCGCGAACTCGCGGTGCATAAGTTTAAGGTCTGTTTTTGCC (double strand) [unspecific competitor]
binding result (ZNF143 DBD [1]): no binding

TGTCCTGGTGCATGGTGGTCGGA (double strand) [SBS/B]
binding signal (ZNF143 DBD [2]): 80

TTTTACCCAGTGTGCATTATTCTCC (double strand) [SBS/C]
binding signal (ZNF143 DBD [2]): 18

Construct, isoform or probe ends are uncertain for at least one entry. For part of these data: Negatives hold for the conditions tested. For part of these data: At least one verdict rests on a figure or table, not on a statement of the authors. Tags and fusion partners may be left off the protein sequences shown. For part of these data: Whether high values mean tight binding is not given here for every scale.
